Measurements reported in patent US20150064187A1.
No constants are given. Whether binding was seen depends on the method and setting. Binding seen in cells or lysates may run through a third protein. Some entries that bind do so weakly or less than the wild type.

The chains behind the UniProt entries cited, without tags or fusion partners. Residues count along the entry.
UniProt P07228, residues 25-803: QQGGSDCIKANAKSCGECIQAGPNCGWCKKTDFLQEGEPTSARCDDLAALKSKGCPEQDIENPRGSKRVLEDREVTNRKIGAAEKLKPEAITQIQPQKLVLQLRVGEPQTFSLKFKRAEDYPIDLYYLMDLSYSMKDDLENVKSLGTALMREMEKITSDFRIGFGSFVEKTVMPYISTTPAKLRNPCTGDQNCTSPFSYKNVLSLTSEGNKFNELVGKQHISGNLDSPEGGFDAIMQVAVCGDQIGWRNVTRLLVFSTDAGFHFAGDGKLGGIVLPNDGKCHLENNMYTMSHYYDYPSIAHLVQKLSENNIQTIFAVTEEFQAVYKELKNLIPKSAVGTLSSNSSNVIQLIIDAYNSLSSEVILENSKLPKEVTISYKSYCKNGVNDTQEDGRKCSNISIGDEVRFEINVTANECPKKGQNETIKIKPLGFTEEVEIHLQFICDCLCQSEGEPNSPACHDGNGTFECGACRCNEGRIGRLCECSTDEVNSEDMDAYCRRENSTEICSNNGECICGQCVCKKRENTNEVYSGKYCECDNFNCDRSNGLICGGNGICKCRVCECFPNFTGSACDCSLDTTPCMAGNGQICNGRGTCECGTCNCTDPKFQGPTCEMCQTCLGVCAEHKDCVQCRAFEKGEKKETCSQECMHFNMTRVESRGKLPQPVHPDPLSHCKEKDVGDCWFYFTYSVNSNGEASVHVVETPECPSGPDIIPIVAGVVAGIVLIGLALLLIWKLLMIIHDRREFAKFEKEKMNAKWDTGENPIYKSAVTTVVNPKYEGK

Molecular target: chicken integrin β1 chain (chicken) (UniProt P07228)
Test: coimmunoprecipitation with Y9A2 from detergent lysate of the human α9-expressing chicken cell line

- binding: binds
B1: human integrin α9 chain (expressed in a chicken cell line) (receptor, UniProt Q13797 30-1035, looked up)
chain: YNLDPQRPVHFQGPADSFFGYAVLEHFHDNTRWVLVGAPKADSKYSPSVKSPGAVFKCRVHTNPDRRCTELDMARGKNRGTSCGKTCREDRDDEWMGVSLARQPKADGRVLACAHRWKNIYYEADHILPHGFCYIIPSNLQAKGRTLIPCYEEYKKKYGEEHGSCQAGIAGFFTEELVVMGAPGSFYWAGTIKVLNLTDNTYLKLNDEVIMNRRYTYLGYAVTAGHFSHPSTIDVVGGAPQDKGIGKVYIFRADRRSGTLIKIFQASGKKMGSYFGSSLCAVDLNGDGLSDLLVGAPMFSEIRDEGQVTVYINRGNGALEEQLALTGDGAYNAHFGESIASLDDLDNDGFPDVAIGAPKEDDFAGAVYIYHGDAGGIVPQYSMKLSGQKINPVLRMFGQSISGGIDMDGNGYPDVTVGAFMSDSVVLLRARPVITVDVSIFLPGSINITAPQCHDGQQPVNCLNVTTCFSFHGKHVPGEIGLNYVLMADVAKKEKGQMPRVYFVLLGETMGQVTEKLQLTYMEETCRHYVAHVKRRVQDVISPIVFEAAYSLSEHVTGEEERELPPLTPVLRWKKGQKIAQKNQTVFERNCRSEDCAADLQLQGKLLLSSMDEKTLYLALGAVKNISLNISISNLGDDAYDANVSFNVSRELFFINMWQKEEMGISCELLESDFLKCSVGFPFMRSKSKYEFSVIFDTSHLSGEEEVLSFIVTAQSGNTERSESLHDNTLVLMVPLMHEVDTSITGIMSPTSFVYGESVDAANFIQLDDLECHFQPINITLQVYNTGPSTLPGSSVSISFPNRLSSGGAEMFHVQEMVVGQEKGNCSFQKNPTPCIIPQEQENIFHTIFAFFTKSGRKVLDCEKPGISCLTAHCNFSALAKEESRTIDIYMLLNTEILKKDSSSVIQFMSRAKVKVDPALRVVEIAHGNPEEVTVVFEALHNLEPRGYVVGWIIAISLLVGILIFLLLAVLLWKMGFFRRRYKEIIEAEKNRKENEDSWDWVQKNQ
